The test has as its target Nuclear speckle-type pox virus and zinc finger protein (SPOP), Myc-tagged (UniProt O43791). In words: co-IP; Myc-SPOP transfected in HeLa cells, harvested after 42 h, lysed in NP40 IP buffer; whole-cell extracts incubated with primary antibodies overnight at 4 °C, magnetic beads, washed three times with lysis buffer; Western blot.

Amino acid sequences for entries named in this document (tags omitted).
UniProt O43791: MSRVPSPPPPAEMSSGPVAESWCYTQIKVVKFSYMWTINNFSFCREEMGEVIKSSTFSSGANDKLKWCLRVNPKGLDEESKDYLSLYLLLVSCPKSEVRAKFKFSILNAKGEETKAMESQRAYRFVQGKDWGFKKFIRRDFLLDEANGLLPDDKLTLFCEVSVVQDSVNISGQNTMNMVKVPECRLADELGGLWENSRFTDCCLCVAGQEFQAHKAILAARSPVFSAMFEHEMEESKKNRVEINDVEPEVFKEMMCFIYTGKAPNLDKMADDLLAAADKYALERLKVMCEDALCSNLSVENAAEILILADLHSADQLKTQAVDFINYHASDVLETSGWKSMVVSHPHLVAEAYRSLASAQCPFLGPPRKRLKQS

Results are given in words; binding and its absence hold for the method and conditions named. Binding seen in cells or lysates may run through a third protein. Some results given as binding are weak or reduced against the parent protein; the word gives no strength.

B1: CXCL16 (protein, UniProt Q9H2A7 30-254)
chain: NEGSVTGSCYCGKRISSDSPPSVQFMNRLRKHLRAYHRCLYYTRFQLLSWSVCGGNKDPWVQELMSCLDLKECGHAYSGIVAHQKHLLPTSPPISQASEGASSDIHTPAQMLLSTLQSTQRPTLPVGSLSSDKELTRPNETTIHTAGHSLAAGPEAGENQKQPEKNAGPTARTSATVPVLCLLAIIFILTAALSYVLCKRRRGQSPQSSPDLPVHYIPVAPDSNT
With B1, the binding result is “binds”.

For the origin of these results see publication PMC9429754.
